Data as given in the supplement of paper PMC4604168 (melanoma cell lines).
The list shows a part of the results. Repeats are few or missing, and single values can be far off.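 The apoptosis fraction was the count of cleaved-PARP antibody-stained nuclei relative to all DNA-stained nuclei, imaged in 1,536-well plates. Screening doses were set so most cells survived, and baseline and induced cleaved-PARP levels vary greatly across cell lines.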

Legend:
Experiment in all cases: cleaved PARP positive nuclei fraction relative to DMSO control; melanoma cells; higher = more apoptosis
Conditions in all cases: library dose: low library concentration; 72 h
MZ2-MEL = test system: MZ2-MEL
MeWo = test system: MeWo
RPMI7951 = test system: RPMI7951
RVH-421 = test system: RVH-421
SkMel28 = test system: SkMel28
SkMel2 = test system: SkMel2
SkMel30 = test system: SkMel30
SkMel5 = test system: SkMel5
UACC257 = test system: UACC257
UACC62 = test system: UACC62

SMILES	cleaved PARP positive nuclei fraction (MZ2-MEL)	cleaved PARP positive nuclei fraction (MeWo)	cleaved PARP positive nuclei fraction (RPMI7951)	cleaved PARP positive nuclei fraction (RVH-421)	cleaved PARP positive nuclei fraction (SkMel28)	cleaved PARP positive nuclei fraction (SkMel2)	cleaved PARP positive nuclei fraction (SkMel30)	cleaved PARP positive nuclei fraction (SkMel5)	cleaved PARP positive nuclei fraction (UACC257)	cleaved PARP positive nuclei fraction (UACC62)
Cn1cc(C2=C(c3cn(C4CCN(Cc5ccccn5)CC4)c4ccccc34)C(=O)NC2=O)c2ccccc21 [Enzastaurin] + OCCn1cc(-c2cnc3nnn(Cc4ccc5ncccc5c4)c3n2)cn1 [PF04217903] (first compound 0.8 µM, partner dose 1 µM)	92.2%	31.4%	286%	466%	115%	231%	57.4%	71.2%	169%	41.8%
CC1(C)CCC(c2ccc(Cl)cc2)=C(CN2CCN(c3ccc(C(=O)NS(=O)(=O)c4ccc(N[C@H](CCN5CCOCC5)CSc5ccccc5)c(S(=O)(=O)C(F)(F)F)c4)cc3)CC2)C1 + Cc1cc(SCc2sc(-c3ccc(C(F)(F)F)c(F)c3)nc2C)ccc1OCC(=O)O [GW0742] (first compound 0.4 µM, partner dose 2 µM)	428%	349%	452%	221%	172%	179%	55.8%	200%	245%	82%
Cn1cc(C2=C(c3cn(C4CCN(Cc5ccccn5)CC4)c4ccccc34)C(=O)NC2=O)c2ccccc21 [Enzastaurin] + O=C(Nc1ccccc1)c1cc([N+](=O)[O-])ccc1Cl [GW9662] (first compound 0.8 µM, partner dose 2 µM)	104%	20.6%	36.4%	77.4%	18.8%	176%	85.9%	149%	107%	103%
CC(=O)O[C@@]12CO[C@@H]1C[C@H](O)[C@@]1(C)C(=O)[C@H](O)C3=C(C)[C@@H](OC(=O)[C@H](O)[C@@H](NC(=O)OC(C)(C)C)c4ccccc4)C[C@@](O)([C@@H](OC(=O)c4ccccc4)[C@H]21)C3(C)C [Docetaxel] + Cc1cc(SCc2sc(-c3ccc(C(F)(F)F)c(F)c3)nc2C)ccc1OCC(=O)O [GW0742] (first compound 0.0001 µM, partner dose 2 µM)	799%	195%	346%	207%	361%	945%	239%	312%	163%	645%
N.N.[Cl][Pt][Cl] [cisplatin] + COc1cc(N2CCC(N3CCN(C)CC3)CC2)ccc1Nc1ncc(Cl)c(Nc2ccccc2S(=O)(=O)C(C)C)n1 [NVP-TAE684] (first compound 1.6 µM, partner dose 0.08 µM)	212%	211%	74%	102%	144%	49.7%	89.7%	77.5%	279%	76.7%
Clc1ccc(Nc2nnc(Cc3ccncc3)c3ccccc23)cc1 [vatalanib] + O=C(Oc1ccc([N+](=O)[O-])cc1)N1CCC(C(O)(c2ccc3c(c2)OCO3)c2ccc3c(c2)OCO3)CC1 [JZL184] (first compound 2 µM, partner dose 1 µM)	50.2%	125%	83.9%	46.7%	107%	115%	26.6%	39.6%	230%	255%
N.N.[Cl][Pt][Cl] [cisplatin] + C/C(O)=C(\C#N)C(=O)Nc1cc(Br)ccc1Br [LFM-A13] (first compound 1.6 µM, partner dose 2 µM)	162%	49.4%	423%	23.2%	120%	123%	42.3%	82.8%	143%	81.7%
Cn1cc(C2=C(c3cn(C4CCN(Cc5ccccn5)CC4)c4ccccc34)C(=O)NC2=O)c2ccccc21 [Enzastaurin] + O=C(Oc1ccc([N+](=O)[O-])cc1)N1CCC(C(O)(c2ccc3c(c2)OCO3)c2ccc3c(c2)OCO3)CC1 [JZL184] (first compound 0.8 µM, partner dose 1 µM)	106%	72.3%	106%	61.6%	158%	88%	48%	168%	56.8%	65.4%
N.N.[Cl][Pt][Cl] [cisplatin] + O=C(Nc1ccccc1)c1cc([N+](=O)[O-])ccc1Cl [GW9662] (first compound 1.6 µM, partner dose 2 µM)	225%	199%	73.8%	88.3%	153%	82.9%	84.3%	177%	115%	264%
CS(=O)(=O)CCNCc1ccc(-c2ccc3ncnc(Nc4ccc(OCc5cccc(F)c5)c(Cl)c4)c3c2)o1 [lapatinib] + C/C(O)=C(\C#N)C(=O)Nc1cc(Br)ccc1Br [LFM-A13] (first compound 0.8 µM, partner dose 2 µM)	127%	171%	238%	147%	134%	152%	12.9%	89.4%	126%	115%
Cn1cc(C2=C(c3cn(C4CCN(Cc5ccccn5)CC4)c4ccccc34)C(=O)NC2=O)c2ccccc21 [Enzastaurin] + COc1cc2c(Oc3ccc4[nH]c(C)cc4c3F)ncnc2cc1OCCCN1CCCC1 [cediranib] (first compound 0.8 µM, partner dose 0.4 µM)	39.8%	66.9%	133%	74.7%	109%	159%	118%	109%	150%	213%
NC(=O)c1ccc(N(C(N)=O)c2c(F)cccc2F)nc1-c1ccc(F)cc1F + C/C(O)=C(\C#N)C(=O)Nc1cc(Br)ccc1Br [LFM-A13] (first compound 0.4 µM, partner dose 2 µM)	52.8%	76.6%	80.2%	71.8%	168%	101%	120%	79.5%	65.1%	138%
Cn1cc(C2=C(c3cn(C4CCN(Cc5ccccn5)CC4)c4ccccc34)C(=O)NC2=O)c2ccccc21 [Enzastaurin] + CN(C)S(=O)(=O)c1ccc2c(c1)/C(=C/c1cc3c([nH]1)CCCC3)C(=O)N2 [SU6656] (first compound 0.8 µM, partner dose 0.4 µM)	126%	15.2%	104%	85.1%	119%	116%	395%	139%	103%	135%
CCCS(=O)(=O)Nc1ccc(F)c(C(=O)c2c[nH]c3ncc(Cl)cc23)c1F + O=C(Oc1ccc([N+](=O)[O-])cc1)N1CCC(C(O)(c2ccc3c(c2)OCO3)c2ccc3c(c2)OCO3)CC1 [JZL184] (first compound 0.08 µM, partner dose 1 µM)	57.9%	43.7%	27.5%	120%	246%	30.2%	41.3%	69.5%	140%	219%
Cn1cc(C2=C(c3cn(C4CCN(Cc5ccccn5)CC4)c4ccccc34)C(=O)NC2=O)c2ccccc21 [Enzastaurin] + N#Cc1c(O)c2c(-c3ccc(-c4ccccc4O)cc3)csc2[nH]c1=O [A769662] (first compound 0.8 µM, partner dose 2 µM)	129%	67.7%	69%	52%	88.3%	284%	94.2%	67.2%	88.5%	91.7%
Cn1cc(C2=C(c3cn(C4CCN(Cc5ccccn5)CC4)c4ccccc34)C(=O)NC2=O)c2ccccc21 [Enzastaurin] + O=C(O)C(=O)Nc1sc2c(c1C(=O)O)CCNC2 [TCS401] (first compound 0.8 µM, partner dose 1.66667 µM)	85.4%	54.5%	77.1%	18.7%	147%	54.9%	163%	76.4%	439%	251%
Cn1cc(C2=C(c3cn(C4CCN(Cc5ccccn5)CC4)c4ccccc34)C(=O)NC2=O)c2ccccc21 [Enzastaurin] + O=C(Nc1cccc(Cl)c1)Nc1ncc(CCNc2ncnc3ccsc23)s1 [SNS314] (first compound 0.8 µM, partner dose 0.0008 µM)	84.2%	61.2%	190%	152%	270%	149%	116%	32.9%	127%	26.4%
C[As](C)SC[C@H](NC(=O)CC[C@H](N)C(=O)O)C(=O)NCC(=O)O [Darinaparsin] + C=CCn1c(=O)c2cnc(Nc3ccc(N4CCN(C)CC4)cc3)nc2n1-c1cccc(C(C)(C)O)n1 [MK1775] (first compound 0.4 µM, partner dose 0.02 µM)	93.7%	49.1%	50%	156%	299%	62%	88.7%	811%	180%	132%
COc1cc([C@@H]2c3cc4c(cc3[C@@H](O[C@@H]3O[C@@H]5CO[C@@H](C)O[C@H]5[C@H](O)[C@H]3O)[C@H]3COC(=O)[C@H]23)OCO4)cc(OC)c1O [etoposide] + Cc1cc(SCc2sc(-c3ccc(C(F)(F)F)c(F)c3)nc2C)ccc1OCC(=O)O [GW0742] (first compound 0.02 µM, partner dose 2 µM)	191%	137%	29.9%	167%	15.9%	105%	45.9%	138%	91.8%	70.4%
Cn1cnc2c(F)c(Nc3ccc(Br)cc3Cl)c(C(=O)NOCCO)cc21 [selumetinib] + Cc1cc(SCc2sc(-c3ccc(C(F)(F)F)c(F)c3)nc2C)ccc1OCC(=O)O [GW0742] (first compound 0.015 µM, partner dose 2 µM)	216%	291%	60.6%	120%	278%	165%	58.6%	137%	116%	172%
Cc1cc(Nc2cc(N3CCN(C)CC3)nc(/C=C/c3ccccc3)n2)n[nH]1 + Cc1cc(SCc2sc(-c3ccc(C(F)(F)F)c(F)c3)nc2C)ccc1OCC(=O)O [GW0742] (first compound 0.04 µM, partner dose 2 µM)	264%	116%	132%	93.6%	93.3%	175%	130%	74.3%	45.9%	110%
Cc1cn(-c2cc(NC(=O)c3ccc(C)c(Nc4nccc(-c5cccnc5)n4)c3)cc(C(F)(F)F)c2)cn1 [nilotinib] + C/C(O)=C(\C#N)C(=O)Nc1cc(Br)ccc1Br [LFM-A13] (first compound 0.2 µM, partner dose 2 µM)	69.9%	144%	91%	84.4%	200%	96.5%	164%	74.2%	95.8%	98.8%

Complete entries, quoted from the list. Values in the order: cleaved PARP positive nuclei fraction (MZ2-MEL) | cleaved PARP positive nuclei fraction (MeWo) | cleaved PARP positive nuclei fraction (RPMI7951) | cleaved PARP positive nuclei fraction (RVH-421) | cleaved PARP positive nuclei fraction (SkMel28) | cleaved PARP positive nuclei fraction (SkMel2) | cleaved PARP positive nuclei fraction (SkMel30) | cleaved PARP positive nuclei fraction (SkMel5) | cleaved PARP positive nuclei fraction (UACC257) | cleaved PARP positive nuclei fraction (UACC62)
CC(=O)O[C@@]12CO[C@@H]1C[C@H](O)[C@@]1(C)C(=O)[C@H](O)C3=C(C)[C@@H](OC(=O)[C@H](O)[C@@H](NC(=O)OC(C)(C)C)c4ccccc4)C[C@@](O)([C@@H](OC(=O)c4ccccc4)[C@H]21)C3(C)C [Docetaxel] + Cc1cc(SCc2sc(-c3ccc(C(F)(F)F)c(F)c3)nc2C)ccc1OCC(=O)O [GW0742] (first compound 0.0001 µM, partner dose 2 µM) reads 799% | 195% | 346% | 207% | 361% | 945% | 239% | 312% | 163% | 645%
Cn1cc(C2=C(c3cn(C4CCN(Cc5ccccn5)CC4)c4ccccc34)C(=O)NC2=O)c2ccccc21 [Enzastaurin] + CN(C)S(=O)(=O)c1ccc2c(c1)/C(=C/c1cc3c([nH]1)CCCC3)C(=O)N2 [SU6656] (first compound 0.8 µM, partner dose 0.4 µM) reads 126% | 15.2% | 104% | 85.1% | 119% | 116% | 395% | 139% | 103% | 135%
